Measurements taken from article PMC12752504.
Results are given in words; binding and its absence hold for the method and conditions named. In cells and extracts the contact can be indirect. Some binding calls cover weakened binding; strength is not graded here.

Sequences of proteins named here, by UniProt entry; tags and fusion partners are left off.
UniProt Q8NFD5: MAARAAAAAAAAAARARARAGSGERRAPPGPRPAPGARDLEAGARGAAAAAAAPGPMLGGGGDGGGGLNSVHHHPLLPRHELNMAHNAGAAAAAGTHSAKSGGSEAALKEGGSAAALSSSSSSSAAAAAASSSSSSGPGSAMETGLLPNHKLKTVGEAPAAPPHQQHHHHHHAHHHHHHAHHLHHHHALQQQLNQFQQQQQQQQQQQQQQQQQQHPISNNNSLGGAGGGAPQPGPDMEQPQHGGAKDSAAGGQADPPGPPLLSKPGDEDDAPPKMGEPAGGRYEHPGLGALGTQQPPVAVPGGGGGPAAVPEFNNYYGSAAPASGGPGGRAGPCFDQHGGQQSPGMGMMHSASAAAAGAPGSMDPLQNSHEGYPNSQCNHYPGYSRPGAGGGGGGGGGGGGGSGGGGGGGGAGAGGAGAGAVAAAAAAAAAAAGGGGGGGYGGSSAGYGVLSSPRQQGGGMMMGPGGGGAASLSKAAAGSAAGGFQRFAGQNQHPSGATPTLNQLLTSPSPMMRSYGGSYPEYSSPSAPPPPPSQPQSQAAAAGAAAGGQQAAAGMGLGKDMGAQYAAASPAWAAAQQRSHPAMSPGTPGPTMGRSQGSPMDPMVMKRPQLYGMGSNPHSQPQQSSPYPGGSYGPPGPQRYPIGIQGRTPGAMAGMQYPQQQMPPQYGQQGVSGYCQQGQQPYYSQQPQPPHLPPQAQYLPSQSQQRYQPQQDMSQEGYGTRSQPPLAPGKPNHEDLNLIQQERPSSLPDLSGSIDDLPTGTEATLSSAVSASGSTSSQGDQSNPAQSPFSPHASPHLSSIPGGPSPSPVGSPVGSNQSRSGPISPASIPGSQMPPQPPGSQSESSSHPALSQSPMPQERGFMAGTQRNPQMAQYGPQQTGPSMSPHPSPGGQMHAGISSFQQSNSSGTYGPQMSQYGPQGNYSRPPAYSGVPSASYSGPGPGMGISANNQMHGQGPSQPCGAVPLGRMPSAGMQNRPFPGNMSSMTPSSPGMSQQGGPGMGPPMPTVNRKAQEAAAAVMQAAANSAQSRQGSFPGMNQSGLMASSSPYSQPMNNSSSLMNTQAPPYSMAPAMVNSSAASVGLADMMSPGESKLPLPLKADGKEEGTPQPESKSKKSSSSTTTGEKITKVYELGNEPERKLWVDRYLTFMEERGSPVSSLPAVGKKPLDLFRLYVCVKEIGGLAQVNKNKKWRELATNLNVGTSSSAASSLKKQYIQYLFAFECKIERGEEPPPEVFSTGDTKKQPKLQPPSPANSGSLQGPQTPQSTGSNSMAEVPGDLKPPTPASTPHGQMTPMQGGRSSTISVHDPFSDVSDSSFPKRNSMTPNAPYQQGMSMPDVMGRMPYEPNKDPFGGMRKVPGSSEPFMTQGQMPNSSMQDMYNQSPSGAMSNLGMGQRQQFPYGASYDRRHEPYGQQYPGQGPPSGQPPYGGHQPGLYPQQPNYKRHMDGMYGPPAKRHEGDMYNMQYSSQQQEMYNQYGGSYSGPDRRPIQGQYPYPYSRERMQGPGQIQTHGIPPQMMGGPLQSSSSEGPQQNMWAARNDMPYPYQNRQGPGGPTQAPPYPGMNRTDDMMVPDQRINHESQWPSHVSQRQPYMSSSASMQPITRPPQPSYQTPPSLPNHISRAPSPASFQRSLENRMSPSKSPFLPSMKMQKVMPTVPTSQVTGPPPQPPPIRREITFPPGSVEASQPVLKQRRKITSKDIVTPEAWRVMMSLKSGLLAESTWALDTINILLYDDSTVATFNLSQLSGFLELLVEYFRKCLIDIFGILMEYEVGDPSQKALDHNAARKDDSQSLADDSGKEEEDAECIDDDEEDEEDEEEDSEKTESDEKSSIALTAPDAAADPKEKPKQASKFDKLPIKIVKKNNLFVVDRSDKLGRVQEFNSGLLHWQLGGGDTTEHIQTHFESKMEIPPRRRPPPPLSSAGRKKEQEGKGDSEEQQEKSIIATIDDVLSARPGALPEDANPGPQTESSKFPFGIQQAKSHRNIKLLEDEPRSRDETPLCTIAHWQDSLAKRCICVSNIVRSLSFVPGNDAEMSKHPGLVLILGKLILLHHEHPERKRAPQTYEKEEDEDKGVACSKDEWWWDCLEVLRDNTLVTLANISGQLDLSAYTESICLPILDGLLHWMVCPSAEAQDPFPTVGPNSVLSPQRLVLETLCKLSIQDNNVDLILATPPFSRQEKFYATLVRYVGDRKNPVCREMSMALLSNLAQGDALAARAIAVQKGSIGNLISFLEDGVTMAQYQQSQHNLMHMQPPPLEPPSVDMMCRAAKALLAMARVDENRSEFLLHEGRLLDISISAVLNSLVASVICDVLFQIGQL

Biological target: ARID1B (human (endogenous in hiPSC-derived day 5 cells)) (UniProt Q8NFD5)
Assay: co-IP; anti-ARID1B antibody on Protein A Dynabeads incubated with 100 ug nuclear extract of SALL4-WT cells at day 5, 3 h at 4°C; washed five times with Buffer C (400 mM NaCl); immunoblot for SALL4; IgG as negative control

B1: SALL4B (protein, UniProt Q9UJQ4-2 1-616)
chain: MSRRKQAKPQHINSEEDQGEQQPQQQTPEFADAAPAAPAAGELGAPVNHPGNDEVASEDEATVKRLRREETHVCEKCCAEFFSISEFLEHKKNCTKNPPVLIMNDSEGPVPSEDFSGAVLSHQPTSPGSKDCHRENGGSSEDMKEKPDAESVVYLKTETALPPTPQDISYLAKGKVANTNVTLQALRGTKVAVNQRSADALPAPVPGANSIPWVLEQILCLQQQQLQQIQLTEQIRIQVNMWASHALHSSGAGADTLKTLGSHMSQQVSAAVALLSQKAGSQGLSLDALKQAKLPHANIPSATSSLSPGLAPFTLKPDGTRVLPNVMSRLPSALLPQAPGSVLFQSPFSTVALDTSKKGKGKPPNISAVDVKPKDEAALYKHKCRSSLPSTFIRAPPTYVKVEVPGTFVGPSTLSPGMTPLLAAQPRRQAKQHGCTRCGKNFSSASALQIHERTHTGEKPFVCNICGRAFTTKGNLKVHYMTHGANNNSARRGRKLAIENTMALLGTDGKRVSEIFPKEILAPSVNVDPVVWNQYTSMLNGGLAVKTNEISVIQSGGVPTLPVSLGATSVVNNATVSKMDGSQSGISADVEKPSATDGVPKHQFPHFLEENKIAVS
- binding: binds
